Patent US20240376165A1, “COMPOSITION COMPRISING VGLL1 PEPTIDE FOR TREATMENT OF CANCER” (ONECUREGEN CO., LTD., priority 2020, published 2024)
Changes are numbered by the printed parent chain. Numbers in names are those of the source. No constants are given. Whether binding was seen depends on the method and setting. In cells and extracts the contact can be indirect. Some entries that bind do so weakly or less than the wild type. Sequences can lack the tags named with a protein.

By UniProt entry, the sequences of proteins in these tests, tags left out.
UniProt Q15561: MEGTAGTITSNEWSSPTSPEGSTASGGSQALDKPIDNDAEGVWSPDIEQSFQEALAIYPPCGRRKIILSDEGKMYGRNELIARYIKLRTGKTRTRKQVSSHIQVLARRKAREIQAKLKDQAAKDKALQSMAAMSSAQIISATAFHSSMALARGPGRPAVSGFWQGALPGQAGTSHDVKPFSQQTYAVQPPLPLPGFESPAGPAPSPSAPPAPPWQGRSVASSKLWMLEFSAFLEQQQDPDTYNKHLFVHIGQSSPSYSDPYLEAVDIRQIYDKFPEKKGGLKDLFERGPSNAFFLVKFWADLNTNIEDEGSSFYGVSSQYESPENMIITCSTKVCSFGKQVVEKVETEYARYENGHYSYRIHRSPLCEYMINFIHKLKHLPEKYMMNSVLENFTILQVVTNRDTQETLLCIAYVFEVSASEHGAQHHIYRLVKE

B1: HA-VGLL1 (WT), expressed from pcDNA3-HA-VGLL1 (protein, not shown: small tags and cut ends)
chain: MEEMKKTAIRLPKGKQKPIKTEWNSRCVLFTYFQGDISSVVDEHFSRALSNIKSPQELTPSSQSEGVMLKNDDSMSPNQWRYSSPWTKPQPEVPVTNRAANCNLHVPGPMAVNQFSPSLARRASVRPGELWHFSSLAGTSSLEPGYSHPFPARHLVPEPQPDGKREPLLSLLQQDRCLARPQESAARENGNPGQIAGSTGLLFNLPPGSVHYKKLYVSRGSASTSLPNETLSELETPGKYSLTPPNHWGHPHRYLQHL
B2: HA-VGLL1-S50A, expressed from pcDNA3-HA-VGLL1-S50A (protein, not shown: small tags and cut ends)
chain: B1 chain with S50A
B3: HA-VGLL1-S124A, expressed from pcDNA3-HA-VGLL1-S124A (protein, not shown: small tags and cut ends)
chain: B1 chain with S124A

Target: GFP-TEAD4, expressed from the GFP-TEAD4 vector (UniProt Q15561)
Experiment: co-immunoprecipitation with HA antibody agarose, western blot with GFP antibody

binding, binds:
B1
B2
B3
